From article PMC8745574
No constants are given. Whether binding was seen depends on the method and setting. Some binding calls cover weakened binding; strength is not graded here.

Columns and labels:
Experiment in all cases: two-hybrid; Matchmaker GAL4 system, pGADT7-DEST/pGBKT7-DEST, S. cerevisiae PJ69-4α, 30 °C; growth on -LWH plates (with increasing 3-aminotriazol) and -LWHAde plates
[1] = target: T1, high-mobility-group B4 (HMGB4) protein (Arabidopsis thaliana) (UniProt Q42344)
T1 sequence: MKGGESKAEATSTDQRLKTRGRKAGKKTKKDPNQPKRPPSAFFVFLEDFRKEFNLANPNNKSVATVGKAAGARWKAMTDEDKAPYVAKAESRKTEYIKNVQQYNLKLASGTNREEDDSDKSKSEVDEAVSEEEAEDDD

[2] = target: T2, POT1a (Arabidopsis thaliana) (UniProt Q56Y52)
T2 sequence: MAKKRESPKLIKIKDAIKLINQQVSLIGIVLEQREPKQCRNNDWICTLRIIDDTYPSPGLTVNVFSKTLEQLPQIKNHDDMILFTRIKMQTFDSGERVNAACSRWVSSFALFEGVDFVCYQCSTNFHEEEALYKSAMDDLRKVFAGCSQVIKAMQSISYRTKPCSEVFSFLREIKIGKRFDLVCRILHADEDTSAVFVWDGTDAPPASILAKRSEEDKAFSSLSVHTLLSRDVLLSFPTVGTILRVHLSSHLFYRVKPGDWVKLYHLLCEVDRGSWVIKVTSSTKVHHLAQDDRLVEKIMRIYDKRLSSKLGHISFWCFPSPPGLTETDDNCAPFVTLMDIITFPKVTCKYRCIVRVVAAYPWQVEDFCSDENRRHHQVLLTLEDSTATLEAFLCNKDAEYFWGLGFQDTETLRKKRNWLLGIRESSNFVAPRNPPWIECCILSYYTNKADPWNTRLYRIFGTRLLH

[3] = target: T3, AtTERT RID construct (1-271 aa) (Arabidopsis thaliana) (UniProt Q9SPU7)
T3 sequence: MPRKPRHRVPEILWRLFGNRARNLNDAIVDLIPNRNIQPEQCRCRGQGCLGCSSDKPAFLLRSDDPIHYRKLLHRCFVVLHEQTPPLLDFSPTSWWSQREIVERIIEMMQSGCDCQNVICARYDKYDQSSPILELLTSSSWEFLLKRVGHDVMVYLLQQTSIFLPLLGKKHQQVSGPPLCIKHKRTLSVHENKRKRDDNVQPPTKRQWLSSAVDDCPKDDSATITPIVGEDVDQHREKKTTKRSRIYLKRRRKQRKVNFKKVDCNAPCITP

[4] = target: T4, AtTERT TEN construct (1-233 aa) (Arabidopsis thaliana) (UniProt Q9SPU7)
T4 sequence: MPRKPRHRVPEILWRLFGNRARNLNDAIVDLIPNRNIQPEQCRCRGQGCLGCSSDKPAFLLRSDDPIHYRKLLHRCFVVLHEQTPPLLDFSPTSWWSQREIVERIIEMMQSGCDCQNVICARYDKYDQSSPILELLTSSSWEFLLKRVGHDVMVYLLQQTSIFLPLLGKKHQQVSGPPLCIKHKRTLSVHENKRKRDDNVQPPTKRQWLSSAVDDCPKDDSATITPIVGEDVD

binding [1]: no binding
binding [2]: binds weakly
binding [3]: binds weakly
binding [4]: binds
B1: actin-related protein 4 (ARP4) (protein, UniProt Q84M92 1-441)
chain: MYGGDEVSAIVVDLGSHTCKAGYAGEDAPKAVFPSVIGAVDGVEAMDVDVDSTKTNSNSEDSKTESEKEKSKRKLYVGSQAMSYRRDHMEVLSPIKDGIVSDWDLVDNIWEHAFKSCLMIDPTEHPMLLAEPPLNTQQQREKAAELMFEKYKVPALFMAKNPVLTSFATGRATSLVVDCGGGSTTISPVHDGYVLQKAVVSSPLGGEFLTDCLLKSLESKGIKIRPRYSFKRKEVRAGEFQVEDVDIPDTTESYKLFCQRMIVGDIKDSICRVPDTPYDDKSYSNIPTTSYELPDGQTLEIGADRFKVPDVMFNPSIVQTIPGMEKYAEMIPSVRGLPHMVMESINKCDVDIRRELYSSILLAGGTSSMQQLKERLEKDLIEESPHSARVKVLASGNTTERRFSVWIGGSILASLGSFQQMWFSKSEYEEHGASYIQRKCP
